The results in this text go back to patent publication US20040209310A1.

The target in test [1] is recombinant full-length APP695 (pCMV-APP) (human) (UniProt P05067). Kind of test: pulldown of APP695 on immobilized Ig-F spondin truncations.
Test [2] shares this target. Kind of test: pulldown of APP695 solubilized from transfected COS cells on immobilized Ig-F spondin, immunoblot.
Test [3] has the same target. Kind of test: pulldown from transfected COS cell lysate with immobilized full-length Ig-F spondin, immunoblot with C-terminal antibodies. (In general: Immunoblotting shows a protein as a band on a membrane.)
For test [4], the target named is GST-CAPPD fusion protein (pGEX-CAPPD, APP695 residues 286-557) (human) (UniProt P05067). Kind of test: pulldown of secreted myc-F-spondin on immobilized GST-CAPPD, immunoblot.

These are yes or no findings as the source states them, for the method shown. Binding seen in cells or lysates may run through a third protein. Some results given as binding are weak or reduced against the parent protein; the word gives no strength. For part of these data: Tags and fused reporters may be left off the sequences shown.

B1: Ig-F spondin.2 (pCMVIg-F spondin.2, residues 1-501) (Fc fusion, not shown: a dimerising Fc or GST)
chain: FSDETLDKVPKSEGYCSRILRAQGTRREGYTEFSLRVEGDPDFYKPGTSYRVTLSAAPPSYFRGFTLIALRENREGDKEEDHAGTFQIIDEEETQFMSNCPVAVTESTPRRRTRIQVFWIAPPAGTGCVILKASIVQKRIIYFQDEGSLTKKLCEQDSTFDGVTDKPILDCCACGTAKYRLTFYGNWSEKTHPKDYPRRANHWSAIIGGSHSKNYVLWEYGGYASEGVKQVAELGSPVKMEEEIRQQSDEVLTVIKAKAQWPAWQPLNVRAAPSAEFSVDRTRHLMSFLTMMGPSPDWNVGLSAEDLCTKECGWVQKVVQDLIPWDAGTDSGVTYESPNKPTIPQEKIRPLTSLDHPQSPFYDPEGGSITQVARVVIERIARKGEQCNIVPDNVDDIVADLAPEEKDEDDTPETCIYSNWSPWSACSSSTCDKGKRMRQRMLKAQLDLSVPCPDTQDFQPCMGPGCSDEDGPT
Regarding B1, the binding entry in test [1] is on record as “binds”.

B2: Ig-F spondin.4 (pCMVIg-F spondin.4, residues 1-754) (Fc fusion, not shown: a dimerising Fc or GST)
chain: FSDETLDKVPKSEGYCSRILRAQGTRREGYTEFSLRVEGDPDFYKPGTSYRVTLSAAPPSYFRGFTLIALRENREGDKEEDHAGTFQIIDEEETQFMSNCPVAVTESTPRRRTRIQVFWIAPPAGTGCVILKASIVQKRIIYFQDEGSLTKKLCEQDSTFDGVTDKPILDCCACGTAKYRLTFYGNWSEKTHPKDYPRRANHWSAIIGGSHSKNYVLWEYGGYASEGVKQVAELGSPVKMEEEIRQQSDEVLTVIKAKAQWPAWQPLNVRAAPSAEFSVDRTRHLMSFLTMMGPSPDWNVGLSAEDLCTKECGWVQKVVQDLIPWDAGTDSGVTYESPNKPTIPQEKIRPLTSLDHPQSPFYDPEGGSITQVARVVIERIARKGEQCNIVPDNVDDIVADLAPEEKDEDDTPETCIYSNWSPWSACSSSTCDKGKRMRQRMLKAQLDLSVPCPDTQDFQPCMGPGCSDEDGPTCTMSEWITWSPCSISCGMGMRSRERYVKQFPEDGSVCTLPTEETEKCTVNEECSPSSCLMTEWGEWDEYSATCGMGMKKRHRMIKMNPADGSMCKAETSQAEKRMMPECHTIPCLLSPWSEWSDCSVTCGKGMRTRQRMLKSLAELGDCNEDLEQVEKCMLPECPIDCELTEWSQWSECNKSCGKGHVIRTRMIQMEPQFGGAPCPETVQRKKCRIRKCLRNPSIQKLRWREARESRRSEQLKEESEGEQFPG
Take B2: in test [1], the binding entry is “binds”.

B3: Ig-F spondin.1 (pCMVIg-F spondin.1, residues 1-807, full-length) (Fc fusion, not shown: a dimerising Fc or GST)
chain: FSDETLDKVPKSEGYCSRILRAQGTRREGYTEFSLRVEGDPDFYKPGTSYRVTLSAAPPSYFRGFTLIALRENREGDKEEDHAGTFQIIDEEETQFMSNCPVAVTESTPRRRTRIQVFWIAPPAGTGCVILKASIVQKRIIYFQDEGSLTKKLCEQDSTFDGVTDKPILDCCACGTAKYRLTFYGNWSEKTHPKDYPRRANHWSAIIGGSHSKNYVLWEYGGYASEGVKQVAELGSPVKMEEEIRQQSDEVLTVIKAKAQWPAWQPLNVRAAPSAEFSVDRTRHLMSFLTMMGPSPDWNVGLSAEDLCTKECGWVQKVVQDLIPWDAGTDSGVTYESPNKPTIPQEKIRPLTSLDHPQSPFYDPEGGSITQVARVVIERIARKGEQCNIVPDNVDDIVADLAPEEKDEDDTPETCIYSNWSPWSACSSSTCDKGKRMRQRMLKAQLDLSVPCPDTQDFQPCMGPGCSDEDGPTCTMSEWITWSPCSISCGMGMRSRERYVKQFPEDGSVCTLPTEETEKCTVNEECSPSSCLMTEWGEWDEYSATCGMGMKKRHRMIKMNPADGSMCKAETSQAEKRMMPECHTIPCLLSPWSEWSDCSVTCGKGMRTRQRMLKSLAELGDCNEDLEQVEKCMLPECPIDCELTEWSQWSECNKSCGKGHVIRTRMIQMEPQFGGAPCPETVQRKKCRIRKCLRNPSIQKLRWREARESRRSEQLKEESEGEQFPGCRMRPWTAWSECTKLCGGGIQERYMTVKKRFKSSQFTSCKDKKEIRACNVHPC
Consider B3, for which the binding result in test [2] and in test [3] was “binds” each time.

B4: myc-tagged full-length F-spondin (ligand, not shown: small tags and cut ends)
chain: FSDETLDKVPKSEGYCSRILRAQGTRREGYTEFSLRVEGDPDFYKPGTSYRVTLSAAPPSYFRGFTLIALRENREGDKEEDHAGTFQIIDEEETQFMSNCPVAVTESTPRRRTRIQVFWIAPPAGTGCVILKASIVQKRIIYFQDEGSLTKKLCEQDSTFDGVTDKPILDCCACGTAKYRLTFYGNWSEKTHPKDYPRRANHWSAIIGGSHSKNYVLWEYGGYASEGVKQVAELGSPVKMEEEIRQQSDEVLTVIKAKAQWPAWQPLNVRAAPSAEFSVDRTRHLMSFLTMMGPSPDWNVGLSAEDLCTKECGWVQKVVQDLIPWDAGTDSGVTYESPNKPTIPQEKIRPLTSLDHPQSPFYDPEGGSITQVARVVIERIARKGEQCNIVPDNVDDIVADLAPEEKDEDDTPETCIYSNWSPWSACSSSTCDKGKRMRQRMLKAQLDLSVPCPDTQDFQPCMGPGCSDEDGPTCTMSEWITWSPCSISCGMGMRSRERYVKQFPEDGSVCTLPTEETEKCTVNEECSPSSCLMTEWGEWDEYSATCGMGMKKRHRMIKMNPADGSMCKAETSQAEKRMMPECHTIPCLLSPWSEWSDCSVTCGKGMRTRQRMLKSLAELGDCNEDLEQVEKCMLPECPIDCELTEWSQWSECNKSCGKGHVIRTRMIQMEPQFGGAPCPETVQRKKCRIRKCLRNPSIQKLRWREARESRRSEQLKEESEGEQFPGCRMRPWTAWSECTKLCGGGIQERYMTVKKRFKSSQFTSCKDKKEIRACNVHPC
For the molecule B4, in test [4], the binding entry is “binds”.

B5: Ig-F spondin.6 (pCMVIg-F spondin.6, residues 1-442) (Fc fusion, not shown: a dimerising Fc or GST)
chain: FSDETLDKVPKSEGYCSRILRAQGTRREGYTEFSLRVEGDPDFYKPGTSYRVTLSAAPPSYFRGFTLIALRENREGDKEEDHAGTFQIIDEEETQFMSNCPVAVTESTPRRRTRIQVFWIAPPAGTGCVILKASIVQKRIIYFQDEGSLTKKLCEQDSTFDGVTDKPILDCCACGTAKYRLTFYGNWSEKTHPKDYPRRANHWSAIIGGSHSKNYVLWEYGGYASEGVKQVAELGSPVKMEEEIRQQSDEVLTVIKAKAQWPAWQPLNVRAAPSAEFSVDRTRHLMSFLTMMGPSPDWNVGLSAEDLCTKECGWVQKVVQDLIPWDAGTDSGVTYESPNKPTIPQEKIRPLTSLDHPQSPFYDPEGGSITQVARVVIERIARKGEQCNIVPDNVDDIVADLAPEEKDEDDTPET
For B5, in test [1], the binding entry is given as “binds”.
